Results are given in words; binding and its absence hold for the method and conditions named. For some of these results: Binding seen in cells or lysates may run through a third protein. Some binding calls cover weakened binding; strength is not graded here. For some of these results: Where a sequence is shown, tags or fusion partners need not be part of it.

Chains of the proteins cited; added tags and fusions are not shown. Lines headed by an entry give the natural chain unless they say otherwise; changes in a name come on top.
UniProt Q13098: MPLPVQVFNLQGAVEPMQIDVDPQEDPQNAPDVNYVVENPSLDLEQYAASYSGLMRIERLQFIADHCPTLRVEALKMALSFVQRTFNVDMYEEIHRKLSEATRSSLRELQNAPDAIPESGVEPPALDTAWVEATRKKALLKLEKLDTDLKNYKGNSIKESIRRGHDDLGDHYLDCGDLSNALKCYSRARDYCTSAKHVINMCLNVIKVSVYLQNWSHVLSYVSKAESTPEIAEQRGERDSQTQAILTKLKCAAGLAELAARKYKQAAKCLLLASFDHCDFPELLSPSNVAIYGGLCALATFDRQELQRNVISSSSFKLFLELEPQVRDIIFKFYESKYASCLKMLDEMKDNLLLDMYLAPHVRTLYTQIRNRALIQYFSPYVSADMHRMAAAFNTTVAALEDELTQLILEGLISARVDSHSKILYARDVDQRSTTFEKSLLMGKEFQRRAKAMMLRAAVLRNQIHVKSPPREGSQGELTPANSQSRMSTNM
UniProt Q9Y4X5: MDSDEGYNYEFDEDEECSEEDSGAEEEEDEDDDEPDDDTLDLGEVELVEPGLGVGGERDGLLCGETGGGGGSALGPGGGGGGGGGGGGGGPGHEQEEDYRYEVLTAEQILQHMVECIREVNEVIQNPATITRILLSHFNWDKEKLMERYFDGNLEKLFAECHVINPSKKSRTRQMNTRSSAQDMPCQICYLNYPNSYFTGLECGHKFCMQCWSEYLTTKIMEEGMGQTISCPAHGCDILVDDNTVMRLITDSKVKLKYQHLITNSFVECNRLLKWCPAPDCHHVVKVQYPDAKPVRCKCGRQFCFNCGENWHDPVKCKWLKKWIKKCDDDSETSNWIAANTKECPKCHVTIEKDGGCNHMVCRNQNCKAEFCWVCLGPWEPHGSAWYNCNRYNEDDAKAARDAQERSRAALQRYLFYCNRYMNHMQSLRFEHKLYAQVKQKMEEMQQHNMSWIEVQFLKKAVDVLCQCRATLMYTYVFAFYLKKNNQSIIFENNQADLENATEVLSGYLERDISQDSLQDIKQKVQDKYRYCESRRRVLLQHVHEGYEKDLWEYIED
UniProt O95376: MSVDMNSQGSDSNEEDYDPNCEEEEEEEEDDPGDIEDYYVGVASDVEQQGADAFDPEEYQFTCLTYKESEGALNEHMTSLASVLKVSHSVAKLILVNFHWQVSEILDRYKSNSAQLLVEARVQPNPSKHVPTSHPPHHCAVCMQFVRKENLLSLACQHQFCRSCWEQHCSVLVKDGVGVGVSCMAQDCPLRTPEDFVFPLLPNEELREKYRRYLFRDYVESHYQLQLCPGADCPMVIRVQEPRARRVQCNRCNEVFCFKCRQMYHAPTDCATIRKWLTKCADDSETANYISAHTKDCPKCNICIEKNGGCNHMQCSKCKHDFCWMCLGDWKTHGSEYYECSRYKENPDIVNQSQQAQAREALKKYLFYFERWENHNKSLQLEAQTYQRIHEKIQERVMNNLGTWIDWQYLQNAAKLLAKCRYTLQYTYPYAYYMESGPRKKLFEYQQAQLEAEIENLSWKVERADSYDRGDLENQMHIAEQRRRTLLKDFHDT
UniProt Q13619: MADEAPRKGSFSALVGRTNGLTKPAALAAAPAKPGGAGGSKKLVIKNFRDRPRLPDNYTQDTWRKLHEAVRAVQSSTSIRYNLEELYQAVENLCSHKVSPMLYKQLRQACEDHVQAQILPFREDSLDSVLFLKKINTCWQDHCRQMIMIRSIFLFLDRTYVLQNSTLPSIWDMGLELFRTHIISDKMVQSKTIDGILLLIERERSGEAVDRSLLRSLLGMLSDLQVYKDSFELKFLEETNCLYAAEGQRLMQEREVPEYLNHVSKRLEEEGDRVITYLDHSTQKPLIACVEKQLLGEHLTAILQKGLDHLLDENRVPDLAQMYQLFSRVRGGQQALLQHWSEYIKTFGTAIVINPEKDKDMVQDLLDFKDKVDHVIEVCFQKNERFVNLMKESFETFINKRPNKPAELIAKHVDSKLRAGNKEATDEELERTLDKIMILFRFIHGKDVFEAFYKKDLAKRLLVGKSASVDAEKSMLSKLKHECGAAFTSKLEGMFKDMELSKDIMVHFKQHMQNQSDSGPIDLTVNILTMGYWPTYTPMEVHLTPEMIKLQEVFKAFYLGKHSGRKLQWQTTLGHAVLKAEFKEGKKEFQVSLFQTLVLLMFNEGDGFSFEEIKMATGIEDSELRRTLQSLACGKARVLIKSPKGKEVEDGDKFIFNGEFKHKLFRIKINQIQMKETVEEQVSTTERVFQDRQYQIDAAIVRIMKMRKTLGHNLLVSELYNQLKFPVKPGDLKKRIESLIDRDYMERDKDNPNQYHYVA
UniProt Q14999: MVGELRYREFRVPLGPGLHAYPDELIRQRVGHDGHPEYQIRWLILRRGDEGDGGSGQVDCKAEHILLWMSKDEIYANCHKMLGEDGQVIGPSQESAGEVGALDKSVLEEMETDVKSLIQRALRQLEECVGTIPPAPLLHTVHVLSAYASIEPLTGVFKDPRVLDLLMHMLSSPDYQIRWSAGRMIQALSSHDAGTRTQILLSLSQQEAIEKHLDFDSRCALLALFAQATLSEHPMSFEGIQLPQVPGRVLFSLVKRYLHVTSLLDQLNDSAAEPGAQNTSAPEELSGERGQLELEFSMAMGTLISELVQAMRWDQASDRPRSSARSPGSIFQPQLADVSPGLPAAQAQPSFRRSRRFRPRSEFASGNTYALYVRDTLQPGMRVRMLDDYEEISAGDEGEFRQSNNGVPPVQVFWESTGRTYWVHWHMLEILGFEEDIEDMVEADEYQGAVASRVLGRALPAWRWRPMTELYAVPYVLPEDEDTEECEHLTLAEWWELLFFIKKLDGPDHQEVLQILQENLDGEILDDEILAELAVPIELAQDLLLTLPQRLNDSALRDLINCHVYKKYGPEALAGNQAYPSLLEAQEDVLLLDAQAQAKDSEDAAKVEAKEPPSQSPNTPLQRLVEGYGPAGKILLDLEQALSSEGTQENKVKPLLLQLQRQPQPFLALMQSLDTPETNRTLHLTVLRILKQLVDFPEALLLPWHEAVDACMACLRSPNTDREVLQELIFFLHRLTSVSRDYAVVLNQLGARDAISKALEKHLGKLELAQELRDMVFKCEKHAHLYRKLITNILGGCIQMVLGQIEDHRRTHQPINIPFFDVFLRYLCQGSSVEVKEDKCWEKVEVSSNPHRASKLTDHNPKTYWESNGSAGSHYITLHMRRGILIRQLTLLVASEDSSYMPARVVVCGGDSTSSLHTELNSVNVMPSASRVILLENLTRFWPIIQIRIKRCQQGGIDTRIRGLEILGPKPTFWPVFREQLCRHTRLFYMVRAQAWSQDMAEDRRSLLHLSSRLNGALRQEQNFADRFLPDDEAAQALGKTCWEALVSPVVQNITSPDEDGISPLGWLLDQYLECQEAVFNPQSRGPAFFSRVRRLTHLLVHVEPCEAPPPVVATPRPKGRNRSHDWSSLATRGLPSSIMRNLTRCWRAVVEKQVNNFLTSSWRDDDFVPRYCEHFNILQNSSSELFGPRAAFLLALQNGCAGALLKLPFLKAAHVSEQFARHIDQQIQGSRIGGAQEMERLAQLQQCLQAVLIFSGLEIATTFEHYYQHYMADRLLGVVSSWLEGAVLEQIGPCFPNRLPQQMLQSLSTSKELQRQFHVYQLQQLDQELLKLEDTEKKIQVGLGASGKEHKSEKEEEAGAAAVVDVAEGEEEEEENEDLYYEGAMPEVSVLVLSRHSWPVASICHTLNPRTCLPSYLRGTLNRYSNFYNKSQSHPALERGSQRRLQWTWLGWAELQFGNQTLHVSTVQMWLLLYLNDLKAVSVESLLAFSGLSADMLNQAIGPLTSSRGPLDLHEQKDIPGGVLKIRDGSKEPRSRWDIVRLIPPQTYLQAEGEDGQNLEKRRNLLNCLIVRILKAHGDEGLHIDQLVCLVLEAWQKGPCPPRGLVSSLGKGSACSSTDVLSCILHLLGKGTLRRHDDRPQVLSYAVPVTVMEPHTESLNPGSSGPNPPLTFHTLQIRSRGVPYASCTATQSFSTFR

Test [1] deals with T1, Lis1, exogenously expressed (Figures S4A-S4D) (human) (UniProt P43034).
T1 sequence: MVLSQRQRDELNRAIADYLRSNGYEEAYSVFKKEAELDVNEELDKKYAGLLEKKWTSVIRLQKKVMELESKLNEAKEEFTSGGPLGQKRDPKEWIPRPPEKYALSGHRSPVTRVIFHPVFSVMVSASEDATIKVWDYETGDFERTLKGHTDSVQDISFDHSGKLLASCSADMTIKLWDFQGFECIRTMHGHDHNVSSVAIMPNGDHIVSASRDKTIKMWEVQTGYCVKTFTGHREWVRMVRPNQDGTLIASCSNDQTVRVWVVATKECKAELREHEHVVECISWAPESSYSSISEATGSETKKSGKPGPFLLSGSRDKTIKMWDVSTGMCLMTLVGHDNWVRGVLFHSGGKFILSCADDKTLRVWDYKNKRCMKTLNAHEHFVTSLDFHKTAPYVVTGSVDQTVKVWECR
Briefly: pull-down; exogenously expressed proteins in HEK 293T cells; legends of Figures S4A-S4D not shown, beads and tags not told.

Test [2] deals with GST-CSN1 (UniProt Q13098). Briefly: pull-down; bacterially purified recombinant GST-tagged protein incubated with purified MBP-ARIH2; eluates immunoblotted with MBP antibody; both purified. On the technique in general: A western blot detects proteins with antibodies after separation by electrophoresis.
The target in test [3] is T2, GST-CSN7A (UniProt Q9UBW8).
T2 sequence: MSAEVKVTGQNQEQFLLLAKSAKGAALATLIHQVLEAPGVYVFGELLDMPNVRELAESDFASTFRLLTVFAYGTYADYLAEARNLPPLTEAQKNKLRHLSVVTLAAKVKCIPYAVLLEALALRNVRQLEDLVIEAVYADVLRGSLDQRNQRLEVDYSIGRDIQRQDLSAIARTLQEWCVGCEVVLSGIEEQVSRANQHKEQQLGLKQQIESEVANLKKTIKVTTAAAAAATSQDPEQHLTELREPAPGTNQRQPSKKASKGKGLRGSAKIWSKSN
The test is described as above.

For test [4], the target named is T3, SFB-Lis1 WT (human) (UniProt P43034).
T3 sequence: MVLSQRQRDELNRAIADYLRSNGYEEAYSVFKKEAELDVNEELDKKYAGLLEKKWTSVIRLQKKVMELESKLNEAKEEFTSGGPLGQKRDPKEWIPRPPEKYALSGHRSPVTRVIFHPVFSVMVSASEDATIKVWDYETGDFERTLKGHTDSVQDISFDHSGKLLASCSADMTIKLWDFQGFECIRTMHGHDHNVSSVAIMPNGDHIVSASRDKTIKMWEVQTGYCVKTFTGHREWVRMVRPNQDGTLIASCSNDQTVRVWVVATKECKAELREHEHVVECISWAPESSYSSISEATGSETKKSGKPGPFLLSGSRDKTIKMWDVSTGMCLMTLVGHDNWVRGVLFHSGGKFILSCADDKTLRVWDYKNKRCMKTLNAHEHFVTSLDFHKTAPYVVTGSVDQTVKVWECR
Description: pull-down; HEK 293T cells co-transfected with an SFB-tagged and a Myc-tagged protein; lysate (NETN buffer) incubated with S-protein beads, 2 h at 4 °C; immunoblot with Myc antibody.

In test [5] the target is ARIH1 (endogenous) (human (endogenous in HEK293T)) (UniProt Q9Y4X5). Description: co-IP; endogenous proteins; HEK293T lysates (NETN buffer) immunoprecipitated with IgG, ARIH1 or ARIH2 antibody on Protein G Sepharose, 2 h at 4 °C; western blot.
Test [6] has as its target ARIH2 (endogenous) (human (endogenous in HEK293T)) (UniProt O95376). The test is described as above.
In test [7] the target is SFB ARIH2 WT (UniProt O95376). Briefly: pull-down; HEK 293T cells co-transfected with an SFB-tagged and a Myc-tagged protein; lysate (NETN buffer) incubated with S-protein beads, 2 h at 4 °C; immunoblot with Myc antibody.

With “ARIH1, exogenously expressed (Figures S4A-S4D) (from UniProt Q9Y4X5 1-557) (enzyme)”, the binding entry in test [1] is given as “binds”.

Consider “ARIH2, exogenously expressed (Figures S4A-S4E) (from UniProt O95376 1-493) (enzyme)”, for which, in test [1], the binding entry is “binds”.

Take “Cul4A, exogenously expressed (Figures S4A-S4D) (from UniProt Q13619 1-759)”: the binding entry in test [1] was “binds”.

As to “Cul7, exogenously expressed (Figures S4A-S4D) (from UniProt Q14999 1-1698)”, the binding result in test [1] is reported as “binds”.

For the molecule “MBP-ARIH2 (from UniProt O95376 1-493) (enzyme)”, the binding entry in test [2] and in test [3] was “binds” each time.

For “Myc-ARIH2 (from UniProt O95376 1-493) (enzyme)”, the binding entry in test [4] is on record as “binds”.

B1: Lis1 (endogenous) (protein, UniProt P43034 1-410)
chain: MVLSQRQRDELNRAIADYLRSNGYEEAYSVFKKEAELDVNEELDKKYAGLLEKKWTSVIRLQKKVMELESKLNEAKEEFTSGGPLGQKRDPKEWIPRPPEKYALSGHRSPVTRVIFHPVFSVMVSASEDATIKVWDYETGDFERTLKGHTDSVQDISFDHSGKLLASCSADMTIKLWDFQGFECIRTMHGHDHNVSSVAIMPNGDHIVSASRDKTIKMWEVQTGYCVKTFTGHREWVRMVRPNQDGTLIASCSNDQTVRVWVVATKECKAELREHEHVVECISWAPESSYSSISEATGSETKKSGKPGPFLLSGSRDKTIKMWDVSTGMCLMTLVGHDNWVRGVLFHSGGKFILSCADDKTLRVWDYKNKRCMKTLNAHEHFVTSLDFHKTAPYVVTGSVDQTVKVWECR
Consider B1, for which the binding entry in test [5] and in test [6] was “binds” each time.

B2: Myc-Lis1 (protein, UniProt P43034 1-410)
chain: MVLSQRQRDELNRAIADYLRSNGYEEAYSVFKKEAELDVNEELDKKYAGLLEKKWTSVIRLQKKVMELESKLNEAKEEFTSGGPLGQKRDPKEWIPRPPEKYALSGHRSPVTRVIFHPVFSVMVSASEDATIKVWDYETGDFERTLKGHTDSVQDISFDHSGKLLASCSADMTIKLWDFQGFECIRTMHGHDHNVSSVAIMPNGDHIVSASRDKTIKMWEVQTGYCVKTFTGHREWVRMVRPNQDGTLIASCSNDQTVRVWVVATKECKAELREHEHVVECISWAPESSYSSISEATGSETKKSGKPGPFLLSGSRDKTIKMWDVSTGMCLMTLVGHDNWVRGVLFHSGGKFILSCADDKTLRVWDYKNKRCMKTLNAHEHFVTSLDFHKTAPYVVTGSVDQTVKVWECR
Turning to B2, the binding entry in test [7] is “binds”.
